Data: publication PMC7862700
This is a selection; strong and weak results do not stand in their true shares. For part of these data: At the low end of the ranking the order means little. This is one part of the list. For part of these data: The exact form of the protein is not confirmed.

The chains behind the UniProt entries cited, without tags or fusion partners. Where a name states a change or a piece, a line headed by the entry shows the natural chain unless it says otherwise.
UniProt Q00613: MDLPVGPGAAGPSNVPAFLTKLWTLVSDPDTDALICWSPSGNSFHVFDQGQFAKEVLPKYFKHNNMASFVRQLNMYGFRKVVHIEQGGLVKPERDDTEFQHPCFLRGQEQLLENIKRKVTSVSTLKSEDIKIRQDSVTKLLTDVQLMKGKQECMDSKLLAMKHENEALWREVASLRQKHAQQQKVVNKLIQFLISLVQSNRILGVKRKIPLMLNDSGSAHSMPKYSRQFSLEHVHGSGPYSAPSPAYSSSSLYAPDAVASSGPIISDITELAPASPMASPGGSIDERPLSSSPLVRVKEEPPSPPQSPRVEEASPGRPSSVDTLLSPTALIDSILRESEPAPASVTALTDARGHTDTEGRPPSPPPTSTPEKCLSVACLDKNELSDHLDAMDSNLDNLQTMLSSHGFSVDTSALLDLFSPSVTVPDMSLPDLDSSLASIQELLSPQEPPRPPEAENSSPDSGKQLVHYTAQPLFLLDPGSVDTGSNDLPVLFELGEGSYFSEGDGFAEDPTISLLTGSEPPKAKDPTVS

Key:
HSF1 = HSF1 (UniProt Q00613); experiment: DAPPL (digital affinity profiling via proximity ligation, sequencing); conditions: 10 mM Tris-HCl pH 7.5, 50 mM NaCl, 1 mM DTT, 4% glycerol, room temperature, 30 min; GST-TFs on glutathione beads, 16-mer random dsDNA library, 0.1% …; high values mean tight binding; double strand, one strand shown; scale: fold enrichment (6-mer frequency, TF over GST control)
ELF2 = molecular target: T1, ELF2 (UniProt Q15723); experiment: as above; conditions: 10 mM Tris-HCl pH 7.5, 50 mM NaCl, 1 mM DTT, 4% glycerol, room temperature, 30 min; GST-TFs on glutathione beads, 16-mer random dsDNA library, 0.1% …; high values mean tight binding; double strand, one strand shown; scale: fold enrichment (6-mer frequency, TF over GST control)
T1 sequence: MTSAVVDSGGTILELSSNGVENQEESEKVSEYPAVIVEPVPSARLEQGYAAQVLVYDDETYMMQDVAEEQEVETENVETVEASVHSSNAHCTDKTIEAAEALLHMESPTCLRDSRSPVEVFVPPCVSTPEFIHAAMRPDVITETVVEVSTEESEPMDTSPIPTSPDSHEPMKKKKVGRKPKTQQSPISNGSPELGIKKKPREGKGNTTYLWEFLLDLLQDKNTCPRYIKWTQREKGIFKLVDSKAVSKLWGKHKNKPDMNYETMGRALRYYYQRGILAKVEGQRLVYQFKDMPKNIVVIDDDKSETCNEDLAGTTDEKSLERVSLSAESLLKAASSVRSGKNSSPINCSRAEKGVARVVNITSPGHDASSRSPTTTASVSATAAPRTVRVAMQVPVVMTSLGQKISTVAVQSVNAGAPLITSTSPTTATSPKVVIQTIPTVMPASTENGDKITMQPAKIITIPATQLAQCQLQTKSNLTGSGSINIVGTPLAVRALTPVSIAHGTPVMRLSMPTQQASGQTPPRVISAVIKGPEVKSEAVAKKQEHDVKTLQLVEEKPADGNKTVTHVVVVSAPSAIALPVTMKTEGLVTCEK

| Sequence | binding signal (HSF1) | binding signal (ELF2) |
| --- | --- | --- |
| TATCTT | 1.48 | 1.3 |
| ACAGCA | 0.828 | 0.971 |
| TGAATA | 1.24 | 1.11 |
| ACCTGA | 0.922 | 1.01 |
| TTAGGT | 1.28 | 1.05 |
| CCCAAC | 0.833 | 1.1 |
| CGCGCG | 0.957 | 1.04 |
| ATGGTC | 1.01 | 1.4 |
| ATGCTA | 1.46 | 1.24 |
| GTACGC | 0.823 | 1.07 |
| TTTAGT | 1.2 | 0.995 |
| CAGCCC | 0.92 | 1.11 |
| AATTTT | 1.51 | 1.29 |
| TGCTTG | 0.999 | 1.09 |
| ACAAAG | 0.947 | 0.959 |
| TTAAGG | 1.67 | 1.17 |
| GTCATT | 0.889 | 0.925 |
| TCTCAT | 1.29 | 1.2 |
| GAAGCG | 0.932 | 1.65 |
| TCAGAT | 1.21 | 1.01 |
| ACACTA | 1.12 | 1.13 |
| CAACTG | 0.962 | 1.09 |
| CAAAGT | 0.879 | 0.916 |

3 entries from above, with tabs:
Sequence	binding signal (HSF1)	binding signal (ELF2)
ACCTGA	0.922	1.01
TTTAGT	1.2	0.995
TTAAGG	1.67	1.17

(next part)

| Sequence | binding signal (HSF1) | binding signal (ELF2) |
| --- | --- | --- |
| GACTAC | 0.896 | 1.13 |
| TTCCGC | 1.34 | 4.54 |
| ATCCGT | 0.891 | 1.04 |
| CATTGG | 0.801 | 0.887 |
| GTACCA | 0.896 | 0.981 |
| GCATCT | 0.954 | 0.979 |
| TCGTTA | 0.938 | 0.891 |
| GCAAAC | 0.802 | 0.952 |
| AGTTTC | 1.38 | 1.36 |
| ACCTGT | 0.755 | 0.953 |
| GCGTCA | 0.746 | 0.924 |
| CATGTA | 0.955 | 1.02 |
| CCGACT | 1.29 | 1.44 |
| AAGTGT | 0.996 | 1.37 |
| TGCCGA | 1.07 | 1.1 |
| ATATAT | 1.31 | 1.44 |
| TAGGCA | 0.943 | 0.961 |
| CGCGTA | 0.991 | 0.968 |
| CATTAG | 1.07 | 0.938 |
| AGCGCT | 0.93 | 1.06 |
| TTCTGA | 1.48 | 1.16 |
| CCTTGT | 0.988 | 1.25 |
| TCTATT | 1.43 | 1.23 |

Reformatted tab-delimited: entries from further up
Sequence	binding signal (HSF1)	binding signal (ELF2)
ACAGCA	0.828	0.971
TGAATA	1.24	1.11
ACCTGA	0.922	1.01
TTAGGT	1.28	1.05
CGCGCG	0.957	1.04
ATGCTA	1.46	1.24
GTACGC	0.823	1.07
CAGCCC	0.92	1.11
AATTTT	1.51	1.29
TGCTTG	0.999	1.09
ACAAAG	0.947	0.959
GAAGCG	0.932	1.65
TCAGAT	1.21	1.01
ACACTA	1.12	1.13
CAACTG	0.962	1.09
CAAAGT	0.879	0.916
GACTAC	0.896	1.13
TTCCGC	1.34	4.54
CATTGG	0.801	0.887
GCATCT	0.954	0.979
TCGTTA	0.938	0.891
GCAAAC	0.802	0.952
ACCTGT	0.755	0.953
GCGTCA	0.746	0.924
CATGTA	0.955	1.02
CCGACT	1.29	1.44
TGCCGA	1.07	1.1
ATATAT	1.31	1.44
TAGGCA	0.943	0.961
CGCGTA	0.991	0.968
CATTAG	1.07	0.938

Following part.

| Sequence | binding signal (HSF1) | binding signal (ELF2) |
| --- | --- | --- |
| ATTACC | 1.58 | 1.3 |
| GTCTCT | 1.12 | 1.18 |
| GGCAAT | 0.847 | 0.969 |
| TAGGGC | 1.05 | 0.995 |
| CAAACA | 0.906 | 1.07 |
| TGGGCA | 0.764 | 0.931 |
| GTATGA | 0.814 | 0.953 |
| CTTCCA | 2.18 | 1.49 |
| GAATGA | 1.15 | 0.923 |
| TTGGGA | 0.989 | 0.893 |
| AAATAC | 1.36 | 1.49 |
| CTAACT | 1.19 | 1.26 |
| AAGTTG | 0.908 | 1.15 |
| TCATGG | 0.998 | 1.02 |
| GGGTTC | 0.999 | 1.13 |
| CCGCAG | 0.848 | 1.08 |
| CCAAGC | 0.951 | 1.01 |
| TTCTTG | 1.98 | 1.36 |
| CGAGAT | 1.52 | 0.811 |
| TACCCC | 0.866 | 1.1 |
| GACCGC | 0.733 | 0.875 |
| AACCTG | 1.03 | 1.18 |
| GCATAC | 0.736 | 0.929 |

| Sequence | binding signal (HSF1) | binding signal (ELF2) |
| --- | --- | --- |
| GCTGGT | 1.06 | 1.11 |
| TGTCTG | 0.952 | 1.04 |
| ATCTCA | 1.19 | 1.07 |
| TTTCGT | 1.48 | 1.33 |
| CTAGTG | 0.969 | 0.846 |
| CATACC | 0.837 | 1.05 |
| AAACGC | 1.05 | 1.29 |
| ACGACG | 1.02 | 1.07 |
| GGATGT | 0.824 | 1.89 |
| ACATGT | 0.912 | 1.11 |
| CGTTTG | 0.814 | 1.02 |
| CTGGAA | 4.43 | 1.27 |
| ATACTT | 1.34 | 1.77 |
| CCGACA | 1.03 | 1.17 |
| GCGTAT | 0.881 | 0.983 |
| CATTTG | 1.13 | 1.18 |
| GCGACG | 0.78 | 0.866 |
| GATTAA | 2.83 | 1.03 |
| CACCGC | 0.797 | 0.991 |
| GATAAC | 0.968 | 0.911 |
| GCCACC | 0.676 | 0.848 |
| GCGCCG | 0.827 | 0.919 |
| TCAGTT | 0.844 | 1.06 |

| Sequence | binding signal (HSF1) | binding signal (ELF2) |
| --- | --- | --- |
| CTGCTG | 1.09 | 1.21 |
| TTCCGG | 1.93 | 9.16 |
| TGCATG | 0.853 | 1.03 |
| TACAAA | 1.12 | 1.09 |
| CCTTGC | 1.04 | 1.26 |
| ACGATG | 0.916 | 1.05 |
| ACGCGG | 0.737 | 1.17 |
| CCGAAA | 1.73 | 1.21 |
| AGGTAA | 0.989 | 0.942 |
| CGGCCT | 0.982 | 1.09 |
| GTGCCT | 0.827 | 0.999 |
| CGTCGC | 0.914 | 1.13 |
| GTGTCT | 0.834 | 0.955 |
| AGTATT | 1.35 | 1.24 |
| GCCTGA | 0.974 | 0.943 |
| AACTGA | 0.957 | 1.08 |
| TTCACA | 1.04 | 1.14 |
| TACTAT | 1.37 | 1.27 |
| GTTTCA | 0.982 | 1.28 |
| CATGGC | 0.812 | 0.955 |
| GACTCG | 0.914 | 0.854 |
| TTCGAT | 1.79 | 1.27 |
